# Measured values published in patent US20250296964A1 (INTEGRATED DNA TECHNOLOGIES, published 2025).
# Amino acid sequences for entries named in this document (tags omitted). A change or cut given only in a name is not applied to a line headed by its entry.
# UniProt Q12888: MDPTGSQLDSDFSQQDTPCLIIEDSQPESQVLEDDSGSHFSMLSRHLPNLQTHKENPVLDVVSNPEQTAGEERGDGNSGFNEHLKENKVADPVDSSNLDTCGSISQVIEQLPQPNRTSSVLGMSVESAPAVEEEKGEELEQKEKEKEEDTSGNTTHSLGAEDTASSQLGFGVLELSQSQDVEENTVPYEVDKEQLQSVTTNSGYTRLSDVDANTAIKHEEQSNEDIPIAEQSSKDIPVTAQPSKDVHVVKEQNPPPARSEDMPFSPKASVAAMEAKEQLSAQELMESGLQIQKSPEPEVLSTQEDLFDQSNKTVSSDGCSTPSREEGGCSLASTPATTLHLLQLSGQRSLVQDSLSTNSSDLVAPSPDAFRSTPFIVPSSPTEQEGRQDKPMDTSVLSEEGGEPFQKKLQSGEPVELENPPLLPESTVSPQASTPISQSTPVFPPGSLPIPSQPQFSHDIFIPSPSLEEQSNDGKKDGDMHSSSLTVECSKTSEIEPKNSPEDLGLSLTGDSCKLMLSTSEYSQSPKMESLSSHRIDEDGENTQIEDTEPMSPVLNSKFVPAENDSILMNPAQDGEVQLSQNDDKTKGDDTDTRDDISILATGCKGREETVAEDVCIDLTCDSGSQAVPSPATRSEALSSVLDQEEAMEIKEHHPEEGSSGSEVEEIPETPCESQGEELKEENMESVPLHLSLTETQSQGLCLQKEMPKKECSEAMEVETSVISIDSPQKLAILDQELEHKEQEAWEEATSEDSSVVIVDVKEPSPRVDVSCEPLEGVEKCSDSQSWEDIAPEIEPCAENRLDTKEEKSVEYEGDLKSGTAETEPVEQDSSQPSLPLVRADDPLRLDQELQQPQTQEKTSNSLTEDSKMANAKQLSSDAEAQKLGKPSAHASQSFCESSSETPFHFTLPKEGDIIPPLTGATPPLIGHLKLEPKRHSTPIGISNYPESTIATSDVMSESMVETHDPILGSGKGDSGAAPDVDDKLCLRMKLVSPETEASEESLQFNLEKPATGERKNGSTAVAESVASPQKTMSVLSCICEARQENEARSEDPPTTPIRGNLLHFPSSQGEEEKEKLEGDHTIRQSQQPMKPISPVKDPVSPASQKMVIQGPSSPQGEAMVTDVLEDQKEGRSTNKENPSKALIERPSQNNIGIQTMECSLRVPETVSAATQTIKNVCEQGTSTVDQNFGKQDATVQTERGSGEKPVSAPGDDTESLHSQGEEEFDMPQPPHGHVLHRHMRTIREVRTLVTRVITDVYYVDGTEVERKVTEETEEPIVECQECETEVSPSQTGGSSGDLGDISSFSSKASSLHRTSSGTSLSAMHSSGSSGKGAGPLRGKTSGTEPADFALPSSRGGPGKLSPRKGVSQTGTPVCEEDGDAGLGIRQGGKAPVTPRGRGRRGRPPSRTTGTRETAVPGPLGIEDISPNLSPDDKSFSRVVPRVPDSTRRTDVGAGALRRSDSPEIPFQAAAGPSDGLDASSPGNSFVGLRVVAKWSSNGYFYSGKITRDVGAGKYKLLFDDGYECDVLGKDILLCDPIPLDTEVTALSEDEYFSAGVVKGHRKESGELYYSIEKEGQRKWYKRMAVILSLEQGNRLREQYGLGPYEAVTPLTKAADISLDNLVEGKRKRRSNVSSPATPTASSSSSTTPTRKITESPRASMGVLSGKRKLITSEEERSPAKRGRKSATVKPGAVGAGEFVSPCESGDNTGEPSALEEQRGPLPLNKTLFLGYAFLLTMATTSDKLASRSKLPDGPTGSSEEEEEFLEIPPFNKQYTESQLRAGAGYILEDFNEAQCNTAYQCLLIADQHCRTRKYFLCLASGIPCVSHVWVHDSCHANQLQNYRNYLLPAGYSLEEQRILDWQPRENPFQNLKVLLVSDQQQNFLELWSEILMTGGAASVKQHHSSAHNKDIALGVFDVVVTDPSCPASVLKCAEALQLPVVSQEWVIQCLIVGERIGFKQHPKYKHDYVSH
# B1: ubiquitin variant A [Ubv-A] (designed binder)
# chain: MLIFVRMLTGKMIELEVEPSDTIENVKAKIQDHEGIPPDQQRLAFQGKSLEDGRTLSDYNILKDPKKMPLLRLR
# Molecular target: 53BP1 (human, UniProt Q12888 1-1972, limits assumed)
# Experiment: cell-based or functional assay
binder,measurement,value
B1,"increase in rates of HDR in primary T cells (Ubv-A protein or mRNA, NGS)",> 2 fold
